Data taken from PubChem BioAssay AID493014 (National Center for Advancing Translational Sciences (NCATS), 2011).
This is one part of the list. The main result of the screen is listed elsewhere. These columns were measured beside it and carry no call. The list favours compounds with an active or inconclusive main result. Words in brackets tell the shape of the fitted curve; partial curves, single points and poor fits give uncertain potencies.

Assay: qHTS Assay to Find Inhibitors of Chronic Active B-Cell Receptor Signaling
Details: ABC-DLBCL IkBa-CBG/CBR reporter, luminescence ratio (green luciferase fused to IkBa over red control in TMD8 lymphoma cells), 4 h
Outline: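 Compounds up to 46 uM were incubated four hours with TMD8 cells whose green CBG68 luciferase is fused to IkappaBalpha; red CBR luminescence normalised the signal, and concentration-effect curves were fitted to fusion, red and ratio data.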

[1] = measured here: CBR red luminescence, cell number
[2] = measured here: IkBa-CBG green luminescence

With COc1ccc(C(=O)Nc2ccc3c(c2)Cc2ccccc2-3)cc1 the AC50 [1] was 6.31 µM [rising, single point].

With COc1cc(NC(=O)C/C(C)=N/NC(=O)C(=O)NC2CCCCC2)c(OC)cc1Cl the AC50 [1] was 11.2 µM [falling, single point].

With CCOC(=O)C1C(=O)N(C(=O)c2ccc(OC)cc2)CC1c1ccccc1 (stereo unspecified) the AC50 [1] was 1.46 µM [falling, partial curve, poor fit].

In the case of COc1cc(S(=O)(=O)Nc2ccc(C)cc2)ccc1N=Cc1c(C)[nH]n(-c2ccc(C)cc2)c1=O, the AC50 [2] is reported as 20.6 µM [rising, partial curve, poor fit].

With COc1cc(NC(=O)COC(=O)CCc2cc(OC)c(OC)c(OC)c2)cc(OC)c1 the AC50 [1] was 3.98 µM [falling, full curve, poor fit].

In the case of COc1cc(CNCCCN2CCOCC2)cc(Br)c1OCc1ccc(Cl)cc1, the AC50 [1] is reported as 35.5 µM [falling, single point].

In the case of CC(=O)N1CCc2c(sc(NC(=O)CCS(=O)(=O)c3ccccc3)c2C#N)C1, the AC50 [1] is reported as 0.794 µM [rising, full curve, poor fit].

For COc1ccc(C2c3ccc4ccccc4c3Oc3ncn(CCO)c(=N)c32)cc1 (stereo unspecified), the AC50 [1] was 35.5 µM [falling, single point].

In the case of CC1(C)Cc2c(sc(NC(=O)Nc3ccccc3)c2C(N)=O)CO1, the AC50 [1] is reported as 20 µM [falling, single point].

For O=C(OCc1csc(-c2ccccc2)n1)c1ccccc1O, the AC50 [1] was 11.2 µM [falling, partial curve, poor fit].

For N/C(=N\OCC(=O)Nc1ccccc1)c1nonc1N, the AC50 [1] was 29.1 µM [falling, single point].

For Cc1ccc(C(=O)c2ccc([N+](=O)[O-])cc2)c(C)c1, the AC50 [1] was 6.51 µM [rising, single point].

With N#Cc1sc2nc(N3CCCCC3)c3c(c2c1N)CCCC3 the AC50 [1] was 4.61 µM [rising, full curve, poor fit].

With O=C(NNC(=S)Nc1ccccc1Cl)c1ccccc1 the AC50 [1] was 4.47 µM [falling, partial curve].

With CCOC(=O)C(CSCC(=O)c1ccc(Cl)cc1)NC(=O)OC(C)(C)C (stereo unspecified) the AC50 [1] was 4.11 µM [falling, single point].

In the case of COc1cc(C(CCN2CCOCC2)c2c(OC)cc(OC)c3c(-c4ccccc4)cc(=O)oc23)cc(OC)c1OC (stereo unspecified), the AC50 [1] is reported as 6.51 µM [rising, single point] and the AC50 [2] is reported as 18.4 µM [falling, partial curve].

In the case of O=C1CS/C(=N/N=C/c2ccco2)N1Cc1ccc(F)cc1, the AC50 [1] is reported as 17.8 µM [falling, single point].

With CCOc1ccccc1N(C)C(=O)c1cc2c(=O)n(CC)c3ccccc3c2s1 the AC50 [1] was 11.2 µM [falling, single point].

For CC1CCN(S(=O)(=O)c2ccc(C(=O)Nc3ccccc3-c3nc4ccccc4[nH]3)cc2)CC1, the AC50 [1] was 1.64 µM [rising, full curve, poor fit].

With Cc1ccc2oc(-c3cccc(NC(=S)NC(=O)c4cccs4)c3)nc2c1 the AC50 [1] was 2.91 µM [rising, partial curve].

For Cc1oc(-c2ccccc2)cc1C(=O)Nc1cccc2ccccc12, the AC50 [1] was 11.2 µM [falling, single point].

With O=C(/C=C/c1ccccc1)N/C(=C/c1ccccc1)C(=O)Nc1ccccc1O the AC50 [1] was 0.112 µM [falling, full curve, poor fit].

In the case of O=C(Nc1nnc(-c2ccc3c(c2)CCCC3)o1)c1ccccc1, the AC50 [1] is reported as 29.1 µM [falling, single point].

With O=C(Nc1nc2nccc(-c3ccccc3)n2n1)c1ccccc1 the AC50 [1] was 2.51 µM [falling, full curve, poor fit].

For C#CCOCCOCCOCCNc1nc(N2CCN(C(=O)CCCCCCCCCCNC(=O)[C@H]([C@@H](C)CC)n3cc(CCCCCN)nn3)CC2)nc(N2CCN(C(=O)CCCCCCCCCCNC(=O)[C@H](CO)n3cc(CCCCCN)nn3)CC2)n1, the AC50 [1] was 29.1 µM [rising, single point].

In the case of COc1ccc(N=C2C(=Nc3ccc(OC)cc3)N(c3ccc(OC)cc3)C(=S)N2c2ccccc2)cc1, the AC50 [1] is reported as 23.1 µM [falling, single point].

For O=C(C1CCCN(S(=O)(=O)c2ccc(Cl)cc2)C1)N(Cc1cccs1)C1CC1 (stereo unspecified), the AC50 [1] was 25.9 µM [falling, partial curve, poor fit].

With Cc1ccc(C(=O)NCCSCc2ccc(Cl)cc2Cl)cc1[N+](=O)[O-] the AC50 [1] was 5.17 µM [rising, single point].

With CCc1cc(-c2[nH]ncc2-c2ccc3c(c2)OCO3)c(O)cc1O the AC50 [1] was 7.94 µM [falling, partial curve].

For COc1ccc(Cl)cc1-c1nc(SCC(=O)NC(C)C(C)C)n[nH]1 (stereo unspecified), the AC50 [1] was 35.5 µM [falling, single point].

For Cc1cccnc1NC(=S)Nc1ccc(Br)cc1Cl, the AC50 [1] was 7.08 µM [rising, full curve].

With O=C(Nc1cc(=O)[nH]c(=O)[nH]1)c1cc(Cl)ccc1Cl the AC50 [1] was 11.2 µM [rising, partial curve] and the AC50 [2] was 12.6 µM [falling, single point].

In the case of COc1ccccc1C(=O)Nc1c[nH]c(=O)[nH]c1=O, the AC50 [1] is reported as 28.2 µM [falling, single point].

For CCN(Cc1ccccc1)c1ccc(/C=C(\C#N)c2ccccn2)cc1, the AC50 [1] was 11.6 µM [rising, partial curve].

With CC(c1cccs1)N(C)Cc1nc(CCc2ccccc2)no1 (stereo unspecified) the AC50 [1] was 7.94 µM [rising, partial curve].

For CCN1CCN(c2ccc(S(=O)(=O)N3CCCCC3)cc2NC(=O)/C=C/c2cccc(OC)c2OC)CC1, the AC50 [1] was 25.1 µM [falling, single point].

For Cn1c(CSCc2ccc(F)cc2)nnc1SCC(=O)Nc1nccs1, the AC50 [1] was 2.82 µM [falling, full curve].

With C=CCNc1nc2c(c(=O)[nH]c(=O)n2C)n1CC(O)COc1ccc2ccccc2c1 (stereo unspecified) the AC50 [1] was 0.708 µM [rising, full curve, poor fit].

For CC1CCCC(C)N1S(=O)(=O)c1ccc(NC(=O)CCn2cnc3ccccc3c2=O)cc1 (stereo unspecified), the AC50 [1] was 2.59 µM [rising, full curve, poor fit].
